{"source": "PubChem BioAssay AID602196 (INSERM, 2012)", "screen": "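Knock-downs that protect lung cancer cells from cisplatin or sensitise them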", "system": "human A549 lung cancer cells", "knock-down reagent": "siRNA pair against human genes", "time to read-out": "48 h transfection before cisplatin; time from cisplatin to read-out not stated", "challenge": "cisplatin at a dose killing half of control-siRNA cells; exact dose and duration not given", "read-out": "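Shift in cisplatin death relative to control siRNA, from -50 (all cells die) to +50 (no cells die); siRNAs harmful on their own scored 0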", "direction": "two-siRNA summed score (-2 to +2): higher = both siRNAs protect from cisplatin killing; -2 means both sensitise", "active means": "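Each siRNA scores 0 if harmful alone by LDH or WST-1, otherwise +1 if it reduces and -1 if it increases cisplatin killing; a gene is active when both siRNAs agree (sum +2 or -2)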", "calls": "active = both siRNAs shift cisplatin killing the same way; inactive = no consistent shift, or siRNA harmful alone", "note": "The whole screen tested about 23,000 reagents; shown is a part drawn at random. In the full data, 455 (2%) were called active. 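Active includes both protection and sensitisation; some change values fall well beyond the stated -50 to +50 range.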 Further read-outs or replicates are left out here. The record does not give: the amount of reagent."}
{"Target gene": "LOC388069", "PubChem SID": "SID131521951", "two-siRNA summed score (-2 to +2)": 1, "call": "inactive"}
{"Target gene": "LOC439983", "PubChem SID": "SID131510679", "two-siRNA summed score (-2 to +2)": 0, "call": "inactive"}
{"Target gene": "PLGLB2", "PubChem SID": "SID131501435", "two-siRNA summed score (-2 to +2)": -1, "call": "inactive"}
{"Target gene": "MYO1A", "PubChem SID": "SID131511599", "two-siRNA summed score (-2 to +2)": 0, "call": "inactive"}
{"Target gene": "CEP15", "PubChem SID": "SID131513917", "two-siRNA summed score (-2 to +2)": 0, "call": "inactive"}
{"Target gene": "C4orf33", "PubChem SID": "SID131513105", "two-siRNA summed score (-2 to +2)": 0, "call": "inactive"}
{"Target gene": "ICAM4", "PubChem SID": "SID131518677", "two-siRNA summed score (-2 to +2)": 0, "call": "inactive"}
{"Target gene": "ANGPTL4", "PubChem SID": "SID131508286", "two-siRNA summed score (-2 to +2)": 0, "call": "inactive"}
{"Target gene": "GPR173", "PubChem SID": "SID131505818", "two-siRNA summed score (-2 to +2)": 0, "call": "inactive"}
{"Target gene": "DENND6A", "PubChem SID": "SID131510055", "two-siRNA summed score (-2 to +2)": 0, "call": "inactive"}
{"Target gene": "SLC35E4", "PubChem SID": "SID131510476", "two-siRNA summed score (-2 to +2)": 0, "call": "inactive"}
{"Target gene": "SPDYE1", "PubChem SID": "SID131508790", "two-siRNA summed score (-2 to +2)": 0, "call": "inactive"}
{"Target gene": "EPRS1", "PubChem SID": "SID131514447", "two-siRNA summed score (-2 to +2)": 0, "call": "inactive"}
{"Target gene": "SPTBN4", "PubChem SID": "SID131503733", "two-siRNA summed score (-2 to +2)": 0, "call": "inactive"}
{"Target gene": "DLX4", "PubChem SID": "SID131513201", "two-siRNA summed score (-2 to +2)": 0, "call": "inactive"}
{"Target gene": "GTF2H4", "PubChem SID": "SID131500310", "two-siRNA summed score (-2 to +2)": -2, "call": "active"}
{"Target gene": "RALY", "PubChem SID": "SID131514304", "two-siRNA summed score (-2 to +2)": 0, "call": "inactive"}
{"Target gene": "KCNE3", "PubChem SID": "SID131508818", "two-siRNA summed score (-2 to +2)": 0, "call": "inactive"}
{"Target gene": "PJA2", "PubChem SID": "SID131502035", "two-siRNA summed score (-2 to +2)": -1, "call": "inactive"}
{"Target gene": "DOK1", "PubChem SID": "SID131502612", "two-siRNA summed score (-2 to +2)": -1, "call": "inactive"}
{"Target gene": "ST18", "PubChem SID": "SID131515946", "two-siRNA summed score (-2 to +2)": 0, "call": "inactive"}
{"Target gene": "DDIT3", "PubChem SID": "SID131501254", "two-siRNA summed score (-2 to +2)": -1, "call": "inactive"}
{"Target gene": "GLE1", "PubChem SID": "SID131523125", "two-siRNA summed score (-2 to +2)": 2, "call": "active"}
{"Target gene": "OLFM1", "PubChem SID": "SID131501271", "two-siRNA summed score (-2 to +2)": -1, "call": "inactive"}
{"Target gene": "NPLOC4", "PubChem SID": "SID131516919", "two-siRNA summed score (-2 to +2)": 0, "call": "inactive"}
{"Target gene": "BTNL8", "PubChem SID": "SID131521945", "two-siRNA summed score (-2 to +2)": 1, "call": "inactive"}
{"Target gene": "OR4N2", "PubChem SID": "SID131518743", "two-siRNA summed score (-2 to +2)": 0, "call": "inactive"}
{"Target gene": "BRAP", "PubChem SID": "SID131500586", "two-siRNA summed score (-2 to +2)": -1, "call": "inactive"}
{"Target gene": "SLC35B4", "PubChem SID": "SID131506654", "two-siRNA summed score (-2 to +2)": 0, "call": "inactive"}
{"Target gene": "EMB", "PubChem SID": "SID131508302", "two-siRNA summed score (-2 to +2)": 0, "call": "inactive"}
{"Target gene": "LOC390256", "PubChem SID": "SID131519523", "two-siRNA summed score (-2 to +2)": 1, "call": "inactive"}
